# Experimental data reported in the supplement of paper PMC8728848.
# The list shows a part of the results.
# B1: Pwp6 (Candida glabrata) (protein)
# chain: MGSSHHHHHHSSGLVPRGSHMASANLPKLTNICQIPDNVKKTSGFKGEIRRIGLFPPGGDYTYLLKFPSTGSTASDTISLTTKPQLSTSGWFPSLFGHTYFIKADLLVYMVAYFVPTETGEYTFKLVNSDDAAVMYVGNPSAFPCGSIDTWPEPRKEDINVCDKISASTKLYMEKGLAYPVRLVWYNGGGDGQFNAQFIDPSGTTHTDWNGYVWQYDACTDCDYK
# Experiments:
# Experiment in all cases: glycan array binding signal (z-score within array); higher = stronger binding
# Details in all cases: glycan notation: IUPAC condensed, linker removed
# [1] = biological target: Gal(b1-4)GlcNAc(b1-3)Gal(b1-4)GlcNAc(b1-2)[Gal(b1-4)GlcNAc(b1-3)Gal(b1-4)GlcNAc(b1-6)]Man(a1-6)[Gal(b1-4)GlcNAc(b1-3)Gal(b1-4)GlcNAc(b1-2)Man(a1-3)]Man(b1-4)GlcNAc(b1-4)GlcNAc
# In short: (§1)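 Arrays were curated from the Consortium for Functional Glycomics database, 3228 in total, and kept only where the protein sequence was available. Binding is expressed as a within-array Z-score. This score was averaged across arrays of the same protein sequence at different concentrations or buffers and across linkers, and negative values can be read as non-binding.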
# [2] = biological target: Gal(b1-4)GlcNAc(b1-3)Gal(b1-4)GlcNAc(b1-2)[Gal(b1-4)GlcNAc(b1-3)Gal(b1-4)GlcNAc(b1-6)]Man(a1-6)[Gal(b1-4)GlcNAc(b1-3)Gal(b1-4)GlcNAc(b1-2)Man(a1-3)]Man(b1-4)GlcNAc(b1-4)[Fuc(a1-6)]GlcNAc
# In short: as §1
# [3] = biological target: Gal(b1-4)GlcNAc(b1-3)Gal(b1-4)GlcNAc(b1-3)Gal(b1-4)GlcNAc
# In short: as §1
# [4] = biological target: Gal(b1-4)GlcNAc(b1-3)Gal(b1-4)GlcNAc(b1-3)Gal(b1-4)GlcNAc(b1-2)Man(a1-3)[Gal(b1-4)GlcNAc(b1-3)Gal(b1-4)GlcNAc(b1-3)Gal(b1-4)GlcNAc(b1-2)Man(a1-6)]Man(b1-4)GlcNAc(b1-4)GlcNAc
# In short: as §1
# [5] = biological target: Gal(b1-4)GlcNAc(b1-3)Gal(b1-4)GlcNAc(b1-3)Gal(b1-4)GlcNAc(b1-2)Man(a1-3)[Gal(b1-4)GlcNAc(b1-3)Gal(b1-4)GlcNAc(b1-3)Gal(b1-4)GlcNAc(b1-2)Man(a1-6)]Man(b1-4)GlcNAc(b1-4)[Fuc(a1-6)]GlcNAc
# In short: as §1
# [6] = biological target: Gal(b1-4)GlcNAc(b1-3)Gal(b1-4)GlcNAc(b1-3)Gal(b1-4)GlcNAc(b1-2)[Gal(b1-4)GlcNAc(b1-3)Gal(b1-4)GlcNAc(b1-3)Gal(b1-4)GlcNAc(b1-6)]Man(a1-6)[Gal(b1-4)GlcNAc(b1-3)Gal(b1-4)GlcNAc(b1-3)Gal(b1-4)GlcNAc(b1-2)Man(a1-3)]Man(b1-4)GlcNAc(b1-4)[Fuc(a1-6)]GlcNAc
# In short: as §1
# [7] = biological target: Gal(b1-4)GlcNAc(b1-3)Gal(b1-4)GlcNAc(b1-3)Gal(b1-4)GlcNAc(b1-3)Gal(b1-4)GlcNAc(b1-2)Man(a1-3)[Gal(b1-4)GlcNAc(b1-3)Gal(b1-4)GlcNAc(b1-3)Gal(b1-4)GlcNAc(b1-3)Gal(b1-4)GlcNAc(b1-2)Man(a1-6)]Man(b1-4)GlcNAc(b1-4)GlcNAc
# In short: as §1
# [8] = biological target: Gal(b1-4)GlcNAc(b1-3)Gal(b1-4)GlcNAc(b1-3)Gal(b1-4)GlcNAc(b1-3)Gal(b1-4)GlcNAc(b1-2)Man(a1-3)[Gal(b1-4)GlcNAc(b1-3)Gal(b1-4)GlcNAc(b1-3)Gal(b1-4)GlcNAc(b1-3)Gal(b1-4)GlcNAc(b1-2)Man(a1-6)]Man(b1-4)GlcNAc(b1-4)[Fuc(a1-6)]GlcNAc
# In short: as §1
# [9] = biological target: Gal(b1-4)GlcNAc(b1-3)Gal(b1-4)GlcNAc(b1-3)Gal(b1-4)GlcNAc(b1-3)Gal(b1-4)GlcNAc(b1-2)[Gal(b1-4)GlcNAc(b1-3)Gal(b1-4)GlcNAc(b1-3)Gal(b1-4)GlcNAc(b1-3)Gal(b1-4)GlcNAc(b1-6)]Man(a1-6)[Gal(b1-4)GlcNAc(b1-3)Gal(b1-4)GlcNAc(b1-3)Gal(b1-4)GlcNAc(b1-3)Gal(b1-4)GlcNAc(b1-2)Man(a1-3)]Man(b1-4)GlcNAc(b1-4)[Fuc(a1-6)]GlcNAc
# In short: as §1
# [10] = biological target: Gal(b1-4)GlcNAc(b1-3)Gal(b1-4)GlcNAc(b1-3)Gal(b1-4)GlcNAc(b1-3)Gal(b1-4)GlcNAc(b1-3)Gal(b1-4)GlcNAc(b1-2)Man(a1-3)[Gal(b1-4)GlcNAc(b1-3)Gal(b1-4)GlcNAc(b1-3)Gal(b1-4)GlcNAc(b1-3)Gal(b1-4)GlcNAc(b1-3)Gal(b1-4)GlcNAc(b1-2)Man(a1-6)]Man(b1-4)GlcNAc(b1-4)GlcNAc
# In short: as §1
# [11] = biological target: Gal(b1-4)GlcNAc(b1-3)Gal(b1-4)GlcNAc(b1-3)Gal(b1-4)GlcNAc(b1-3)Gal(b1-4)GlcNAc(b1-3)Gal(b1-4)GlcNAc(b1-2)Man(a1-3)[Gal(b1-4)GlcNAc(b1-3)Gal(b1-4)GlcNAc(b1-3)Gal(b1-4)GlcNAc(b1-3)Gal(b1-4)GlcNAc(b1-3)Gal(b1-4)GlcNAc(b1-2)Man(a1-6)]Man(b1-4)GlcNAc(b1-4)[Fuc(a1-6)]GlcNAc
# In short: as §1
# [12] = biological target: Gal(b1-4)GlcNAc(b1-3)Gal(b1-4)GlcNAc(b1-3)Gal(b1-4)GlcNAc(b1-3)Gal(b1-4)GlcNAc(b1-3)Gal(b1-4)GlcNAc(b1-2)[Gal(b1-4)GlcNAc(b1-3)Gal(b1-4)GlcNAc(b1-3)Gal(b1-4)GlcNAc(b1-3)Gal(b1-4)GlcNAc(b1-3)Gal(b1-4)GlcNAc(b1-6)]Man(a1-6)[Gal(b1-4)GlcNAc(b1-3)Gal(b1-4)GlcNAc(b1-3)Gal(b1-4)GlcNAc(b1-3)Gal(b1-4)GlcNAc(b1-3)Gal(b1-4)GlcNAc(b1-2)Man(a1-3)]Man(b1-4)GlcNAc(b1-4)[Fuc(a1-6)]GlcNAc
# In short: as §1
# [13] = biological target: Gal(b1-4)GlcNAc(b1-3)Gal(b1-4)GlcNAc(b1-3)Gal(b1-4)GlcNAc(b1-3)Gal(b1-4)GlcNAc(b1-3)Gal(b1-4)GlcNAc(b1-3)Gal(b1-4)GlcNAc(b1-2)Man(a1-3)[Gal(b1-4)GlcNAc(b1-3)Gal(b1-4)GlcNAc(b1-3)Gal(b1-4)GlcNAc(b1-3)Gal(b1-4)GlcNAc(b1-3)Gal(b1-4)GlcNAc(b1-3)Gal(b1-4)GlcNAc(b1-2)Man(a1-6)]Man(b1-4)GlcNAc(b1-4)GlcNAc
# In short: as §1
# [14] = biological target: Gal(b1-4)GlcNAc(b1-3)Gal(b1-4)GlcNAc(b1-3)GalNAc
# In short: as §1
# [15] = biological target: Gal(b1-4)GlcNAc(b1-3)Gal(b1-4)GlcNAc(b1-3)[Gal(b1-4)GlcNAc(b1-3)Gal(b1-4)GlcNAc(b1-6)]GalNAc
# In short: as §1
# [16] = biological target: Gal(b1-4)GlcNAc(b1-3)Gal(b1-4)GlcNAc(b1-6)[Gal(b1-3)]GalNAc
# In short: as §1
# [17] = biological target: Gal(b1-4)GlcNAc(b1-3)Gal(b1-4)[Fuc(a1-3)]GlcNAc(b1-3)Gal(b1-4)[Fuc(a1-3)]GlcNAc
# In short: as §1
# [18] = biological target: Gal(b1-4)GlcNAc(b1-3)GalNAc
# In short: as §1
# [19] = biological target: Gal(b1-4)GlcNAc(b1-3)[Fuc(a1-3)GlcNAc(b1-6)]Gal(b1-4)Glc
# In short: as §1
# [20] = biological target: Gal(b1-4)GlcNAc(b1-3)[Gal(b1-4)GlcNAc(b1-6)]Gal(b1-4)GlcNAc
# In short: as §1
# [21] = biological target: Gal(b1-4)GlcNAc(b1-3)[GlcNAc(b1-6)]Gal(b1-4)GlcNAc
# In short: as §1
# [22] = biological target: Gal(b1-4)GlcNAc(b1-6)Gal(b1-4)GlcNAc
# In short: as §1
binder,measurement,setting,value
B1,glycan array binding signal (z-score),[1],2.02
same,glycan array binding signal (z-score),[2],0.465
same,glycan array binding signal (z-score),[3],-0.392
same,glycan array binding signal (z-score),[4],1.7
same,glycan array binding signal (z-score),[5],1.81
same,glycan array binding signal (z-score),[6],0.941
same,glycan array binding signal (z-score),[7],5.06
same,glycan array binding signal (z-score),[8],3.31
same,glycan array binding signal (z-score),[9],0.492
same,glycan array binding signal (z-score),[10],2.07
same,glycan array binding signal (z-score),[11],1.2
same,glycan array binding signal (z-score),[12],1.1
same,glycan array binding signal (z-score),[13],2.71
same,glycan array binding signal (z-score),[14],1.39
same,glycan array binding signal (z-score),[15],2.91
same,glycan array binding signal (z-score),[16],0.411
same,glycan array binding signal (z-score),[17],-0.086
same,glycan array binding signal (z-score),[18],-0.64
same,glycan array binding signal (z-score),[19],0.224
same,glycan array binding signal (z-score),[20],-0.273
same,glycan array binding signal (z-score),[21],0.257
same,glycan array binding signal (z-score),[22],-0.793

# Two entries picked at random from the list so far, as already listed:
binder,measurement,setting,value
B1,glycan array binding signal (z-score),[9],0.492
same,glycan array binding signal (z-score),[4],1.7
